PubChem BioAssay AID1259285 – Sanger Institute, 2017
Shown is one part, drawn at random, of 794 reagents tested. 20 of them (2.5%) were called active. 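Calls rest on the drug-free arm alone and ignore synergy scores; viability ratios seem to be capped at 1.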 Not stated in the record: the amount of reagent, the time to read-out.

Purpose: 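Kinases needed for HCC56 growth and kinases whose loss boosts drug effects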 (primary screen)
Cells: human HCC56 colorectal cancer cells
Reagent: siRNA pool against human genes
Treatment: DMSO vehicle, or anchor drug BYL719 at 1 µM, cetuximab at 5 µg/ml, or trametinib at 10 nM
Measured: 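Viability as a ratio to non-targeting pool wells, averaged over replicates and turned into a robust z-score; synergy scores with BYL719, cetuximab or trametinib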
Reading the numbers: viability robust z-score, no drug: higher = more viable cells, weaker knock-down effect; viability vs non-targeting pool, no drug: higher = more viable cells; synergy score with BYL719: higher = stronger combined killing with BYL719; synergy score with cetuximab: higher = stronger combined killing with cetuximab; synergy score with trametinib: higher = stronger combined killing with trametinib
Active means: 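Essential when the drug-free viability robust z-score falls below -3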
Meaning of the calls: active = essential without drug; inactive = no change without drug

gene knocked down | viability robust z-score, no drug | viability vs non-targeting pool, no drug | synergy score with BYL719 | synergy score with cetuximab | synergy score with trametinib | call
SCYL3 (SCY1 like pseudokinase 3) | -0.0475 | 0.957 | 0.0505 | 0.0187 | 0.0967 | inactive
PLK1 (polo like kinase 1) | -5.49 | 0.489 | 0.0488 | 0.0587 | -0.0617 | active
GK2 (glycerol kinase 2) | -1.01 | 0.874 | 0.0429 | 0.0138 | -0.0184 | inactive
RAD21 (RAD21 cohesin complex component) | 0.397 | 0.995 | -0.00493 | -0.0124 | -0.0131 | inactive
BPTF (bromodomain PHD finger transcription factor) | -2.11 | 0.779 | 0.00861 | 0.0771 | 0.0618 | inactive
TSSK6 (testis specific serine kinase 6) | -0.915 | 0.882 | -0.00923 | 0.0712 | 0.0458 | inactive
CAMKV (CaM kinase like vesicle associated) | 0.458 | 1 | -0.0397 | -0.0933 | 0.078 | inactive
ITSN1 (intersectin 1) | -2.09 | 0.781 | -0.16 | -0.119 | -0.0895 | inactive
HIPK1 (homeodomain interacting protein kinase 1) | 0.458 | 1 | -0.153 | -0.142 | -0.167 | inactive
CLSPN (claspin) | -2.8 | 0.72 | -0.111 | -0.158 | -0.057 | inactive
FGR (FGR proto-oncogene, Src family tyrosine kinase) | 0.458 | 1 | -0.151 | -0.142 | -0.00651 | inactive
TP53RK (TP53 regulating kinase) | 0.458 | 1 | 0.0721 | 0.0445 | -0.0159 | inactive
PTGS1 (prostaglandin-endoperoxide synthase 1) | 0.211 | 0.979 | 0.122 | 0.209 | 0.0733 | inactive
UHMK1 (U2AF homology motif kinase 1) | 0.458 | 1 | -0.162 | -0.103 | 0 | inactive
DAPK2 (death associated protein kinase 2) | 0.121 | 0.971 | 0.0132 | 0.0448 | -0.0272 | inactive
CALM2 (calmodulin 2) | 0.0857 | 0.968 | 0.0522 | -0.0393 | 0.109 | inactive
FASTK (Fas activated serine/threonine kinase) | 0.458 | 1 | 0.0691 | 0.00249 | 0.074 | inactive
PIK3CA | 0.458 | 1 | -0.113 | -0.0399 | 0.0937 | inactive
NEK3 (NIMA related kinase 3) | -1.84 | 0.802 | -0.0954 | -0.125 | -0.0536 | inactive
BRAF (B-Raf proto-oncogene, serine/threonine kinase) | -0.32 | 0.933 | 0.065 | 0.0531 | 0.071 | inactive
GALK1 (galactokinase 1) | -4.56 | 0.569 | -0.043 | -0.0808 | -0.0166 | active
STK36 (serine/threonine kinase 36) | 0.458 | 1 | -0.0961 | -0.142 | -0.13 | inactive
MAPK15 (mitogen-activated protein kinase 15) | 0.458 | 1 | -0.162 | -0.142 | -0.0881 | inactive
MED12 (mediator complex subunit 12) | 0.458 | 1 | -0.161 | -0.142 | -0.0777 | inactive
HIPK4 (homeodomain interacting protein kinase 4) | 0.458 | 1 | -0.162 | -0.142 | -0.194 | inactive
CDK17 (cyclin dependent kinase 17) | 0.458 | 1 | -0.162 | -0.142 | -0.119 | inactive
AKT2 (AKT serine/threonine kinase 2) | -0.545 | 0.914 | 0.0754 | -0.00318 | 0.107 | inactive
MAPK12 (mitogen-activated protein kinase 12) | 0.458 | 1 | -0.162 | -0.142 | -0.231 | inactive
PIK3C3 (phosphatidylinositol 3-kinase catalytic subunit type 3) | 0.458 | 1 | -0.162 | -0.142 | -0.113 | inactive

Part of the list above, reduced to “synergy score with cetuximab”:
BPTF (bromodomain PHD finger transcription factor): 0.0771
TSSK6 (testis specific serine kinase 6): 0.0712
CAMKV (CaM kinase like vesicle associated): -0.0933
ITSN1 (intersectin 1): -0.119
HIPK1 (homeodomain interacting protein kinase 1): -0.142
CLSPN (claspin): -0.158

The results go on:
gene knocked down | viability robust z-score, no drug | viability vs non-targeting pool, no drug | synergy score with BYL719 | synergy score with cetuximab | synergy score with trametinib | call
CTNNB1 (catenin beta 1) | -3.4 | 0.668 | -0.0197 | -0.18 | -0.183 | active
SBK1 (SH3 domain binding kinase 1) | 0.458 | 1 | -0.0286 | -0.142 | -0.159 | inactive
SRPK3 (SRSF protein kinase 3) | 0.458 | 1 | -0.162 | -0.142 | -0.0724 | inactive
EIF2AK1 (eukaryotic translation initiation factor 2 alpha kinase 1) | 0.458 | 1 | -0.0452 | 0.0483 | 0.125 | inactive
DCK (deoxycytidine kinase) | 0.458 | 1 | 0.183 | -0.0454 | 0.0607 | inactive
MAST3 (microtubule associated serine/threonine kinase 3) | 0.458 | 1 | 0.0822 | -0.00882 | 0.116 | inactive
MAPK1 (mitogen-activated protein kinase 1) | -2.08 | 0.782 | -0.0259 | -0.101 | -0.0374 | inactive
AKT1 (AKT serine/threonine kinase 1) | 0.458 | 1 | -0.162 | -0.142 | -0.0239 | inactive
LIMK1 (LIM domain kinase 1) | 0.458 | 1 | -0.162 | -0.142 | -0.0911 | inactive
SIK1 (salt inducible kinase 1) | 0.458 | 1 | -0.0324 | 0.0688 | 0.0757 | inactive
INSR (insulin receptor) | 0.458 | 1 | -0.162 | -0.137 | -0.158 | inactive
CHEK2 (checkpoint kinase 2) | 0.458 | 1 | -0.0144 | -0.000312 | 0.118 | inactive
MYLK (myosin light chain kinase) | 0.458 | 1 | -0.067 | 0.0106 | 0.0464 | inactive
MAP3K20 (mitogen-activated protein kinase kinase kinase 20) | 0.458 | 1 | -0.146 | -0.142 | -0.0494 | inactive
CDC42BPA (CDC42 binding protein kinase alpha) | 0.458 | 1 | -0.047 | 0.00316 | -0.00351 | inactive
APC (APC regulator of Wnt signaling pathway) | 0.175 | 0.976 | -0.0997 | 0.0156 | -0.0516 | inactive
SRC (SRC proto-oncogene, non-receptor tyrosine kinase) | 0.458 | 1 | -0.0945 | -0.142 | -0.144 | inactive
PRKACG (protein kinase cAMP-activated catalytic subunit gamma) | 0.458 | 1 | -0.00618 | 0.0372 | 0.0315 | inactive
GCK (glucokinase) | -2.05 | 0.784 | 0.0471 | 0.0616 | 0.047 | inactive
MAPKAPK3 (MAPK activated protein kinase 3) | 0.155 | 0.974 | 0.211 | 0.127 | 0.0789 | inactive
CSNK1G2 (casein kinase 1 gamma 2) | 0.458 | 1 | -0.162 | -0.142 | -0.0677 | inactive
